Laboratory results as given in PMC5864894.
These are yes or no findings as the source states them, for the method shown. Some entries that bind do so weakly or less than the wild type.

Key:
[1] = target: VscY (V. harveyi) (V. harveyi) (UniProt Q6QVR8); assay: two-hybrid
[2] = target: AscY (A. salmonicida) (A. salmonicida) (UniProt Q8GA92); assay: two-hybrid

VscX (V. harveyi) (from UniProt Q6QVR7 1-125)
binding [1]: binds

AscX (A. salmonicida) (from UniProt Q8GA93 1-121)
binding [2]: binds
